Assay results as given in paper PMC6073362.
Results are given in words; binding and its absence hold for the method and conditions named. Where a sequence is shown, tags or fusion partners need not be part of it.

Protein sequences, listed by entry. Tags and fused reporters are not part of them.
UniProt Q7XT40: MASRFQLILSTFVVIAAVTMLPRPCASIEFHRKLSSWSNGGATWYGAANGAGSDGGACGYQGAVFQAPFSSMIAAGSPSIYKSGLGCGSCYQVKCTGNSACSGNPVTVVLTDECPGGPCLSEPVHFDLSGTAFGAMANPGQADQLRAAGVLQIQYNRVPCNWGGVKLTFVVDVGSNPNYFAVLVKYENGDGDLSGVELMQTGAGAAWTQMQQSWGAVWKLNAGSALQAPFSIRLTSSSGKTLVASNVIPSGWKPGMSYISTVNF
UniProt Q40636: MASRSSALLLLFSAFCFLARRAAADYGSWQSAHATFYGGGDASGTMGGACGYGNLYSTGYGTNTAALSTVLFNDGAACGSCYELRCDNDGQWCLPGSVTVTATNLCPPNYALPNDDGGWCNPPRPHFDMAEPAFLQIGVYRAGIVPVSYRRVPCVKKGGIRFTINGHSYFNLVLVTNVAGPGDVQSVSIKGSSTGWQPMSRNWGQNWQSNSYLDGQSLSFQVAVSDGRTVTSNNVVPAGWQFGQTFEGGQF
UniProt Q0DHB7: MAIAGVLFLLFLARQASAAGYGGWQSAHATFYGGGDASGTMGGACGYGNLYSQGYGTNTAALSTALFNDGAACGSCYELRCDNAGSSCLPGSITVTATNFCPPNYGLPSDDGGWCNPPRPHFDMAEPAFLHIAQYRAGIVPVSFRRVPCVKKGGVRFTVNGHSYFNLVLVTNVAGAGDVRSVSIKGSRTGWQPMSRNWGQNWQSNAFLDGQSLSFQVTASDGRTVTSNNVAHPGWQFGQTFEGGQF
UniProt Q7XT39: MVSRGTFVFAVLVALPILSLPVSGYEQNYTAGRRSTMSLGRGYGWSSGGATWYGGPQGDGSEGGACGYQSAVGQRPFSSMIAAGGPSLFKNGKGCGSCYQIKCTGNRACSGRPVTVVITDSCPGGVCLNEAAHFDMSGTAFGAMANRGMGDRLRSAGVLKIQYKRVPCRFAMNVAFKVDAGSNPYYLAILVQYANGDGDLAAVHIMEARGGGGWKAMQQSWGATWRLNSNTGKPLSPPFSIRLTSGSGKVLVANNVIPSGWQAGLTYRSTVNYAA

Key:
Assay in all cases: two-hybrid; AD-GW2 (pGAD424) and BD fusions (pGBT8) co-transformed into yeast AH109; selected on -Leu/-Trp, growth tested on -Leu/-Trp/-His with 5 mM 3-AT
EXPB15 (Gal4 BD fusion) = EXPB15 (Gal4 BD fusion) (UniProt Q7XT40)
EXPA2 (Gal4 BD fusion) = EXPA2 (Gal4 BD fusion) (UniProt Q40636)
[1] = molecular target: EXPA4 (Gal4 BD fusion) (rice) (UniProt Q0DHB7)
EXPB5 (Gal4 BD fusion) = EXPB5 (Gal4 BD fusion) (UniProt Q7XT39)
EXPB11 (Gal4 BD fusion) = molecular target: T1, EXPB11 (Gal4 BD fusion) (UniProt Q6H676)
T1 sequence: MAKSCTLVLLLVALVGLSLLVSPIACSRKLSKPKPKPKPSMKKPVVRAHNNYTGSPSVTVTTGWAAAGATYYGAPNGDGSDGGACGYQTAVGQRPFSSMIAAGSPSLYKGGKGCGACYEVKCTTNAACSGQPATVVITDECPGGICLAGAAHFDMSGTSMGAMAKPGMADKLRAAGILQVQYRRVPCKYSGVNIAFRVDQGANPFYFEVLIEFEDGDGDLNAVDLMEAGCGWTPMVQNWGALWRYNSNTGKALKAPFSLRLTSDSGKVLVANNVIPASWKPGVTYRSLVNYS

Measured: binding

B1: AD-GW2 (enzyme, UniProt B9F4Q9 1-425)
chain: MGNRIGGRRKAGVEERYTRPQGLYEHRDIDQKKLRKLILEAKLAPCYMGADDAAAAADLEECPICFLYYPSLNRSKCCSKGICTECFLQMKPTHTAQPTQCPFCKTPSYAVEYRGVKTKEERSIEQFEEQKVIEAQMRMRQQALQDEEDKMKRKQNRCSSSRTITPTKEVEYRDICSTSFSVPSYRCAEQETECCSSEPSCSAQTSMRPFHSRHNRDDNIDMNIEDMMVMEAIWRSIQEQGSIGNPVCGNFMPVTEPSPRERQPFVPAASLEIPHGGGFSCAVAAMAEHQPPSMDFSYMAGSSAFPVFDMFRRPCNIAGGSMCNLESSPESWSGIAPSCSREVVREEGECSADHWSEGAEAGTSYAGSDIVADAGTMPQLPFAENFAMAPSHFRPESIEEQMMFSMALSLADGHGRTHSQGLAWL
no binding: EXPB15 (Gal4 BD fusion) | EXPA2 (Gal4 BD fusion) | [1] | EXPB5 (Gal4 BD fusion) | EXPB11 (Gal4 BD fusion)
